Assay in all cases: proximity labelling; TurboID-fused bait expressed from a centromeric CUP1-promoter plasmid in S. cerevisiae YDK11-5A; 500 μM copper sulphate and 500 μM biotin for 1 h at 30°C; biotinylated proteins purified on streptavidin agarose and identified by LC-MS/MS; enrichment against the GFP-TurboID and NLS-GFP-TurboID type controls
Assay [1] addresses T1, TurboID-Sqt1 (S. cerevisiae) (UniProt P35184).
T1 sequence: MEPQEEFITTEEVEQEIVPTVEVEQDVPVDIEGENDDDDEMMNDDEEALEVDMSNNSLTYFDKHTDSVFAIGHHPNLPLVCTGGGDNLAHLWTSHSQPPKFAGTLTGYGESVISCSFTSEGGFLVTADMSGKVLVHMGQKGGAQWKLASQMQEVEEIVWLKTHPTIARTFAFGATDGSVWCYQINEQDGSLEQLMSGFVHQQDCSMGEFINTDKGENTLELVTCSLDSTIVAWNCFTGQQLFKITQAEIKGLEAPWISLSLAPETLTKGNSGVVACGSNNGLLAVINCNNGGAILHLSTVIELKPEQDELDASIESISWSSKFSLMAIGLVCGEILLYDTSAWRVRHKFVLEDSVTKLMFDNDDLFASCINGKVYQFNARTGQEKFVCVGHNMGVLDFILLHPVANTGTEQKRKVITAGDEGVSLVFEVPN

By UniProt entry, the sequences of proteins in these tests, tags left out. Residues count along the entry.
UniProt P10664, residues 1-264: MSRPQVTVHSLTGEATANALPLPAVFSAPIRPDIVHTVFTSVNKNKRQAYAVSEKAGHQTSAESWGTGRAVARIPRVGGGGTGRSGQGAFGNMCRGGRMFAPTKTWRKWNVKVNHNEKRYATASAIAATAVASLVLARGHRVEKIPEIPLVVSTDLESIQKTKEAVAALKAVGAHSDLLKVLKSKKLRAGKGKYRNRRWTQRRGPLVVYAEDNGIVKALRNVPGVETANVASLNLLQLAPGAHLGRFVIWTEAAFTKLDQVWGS
UniProt P0CX44: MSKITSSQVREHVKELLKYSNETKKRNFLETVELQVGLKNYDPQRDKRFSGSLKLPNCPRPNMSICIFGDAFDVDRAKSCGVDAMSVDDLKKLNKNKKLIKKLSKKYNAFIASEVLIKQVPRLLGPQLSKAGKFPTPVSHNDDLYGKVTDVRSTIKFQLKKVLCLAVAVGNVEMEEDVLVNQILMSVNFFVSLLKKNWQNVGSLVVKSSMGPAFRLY

The target of assay [2] is T2, Sqt1-TurboID (S. cerevisiae) (UniProt P35184).
T2 sequence: T1 sequence

Assay [3] concerns the target T3, TurboID-tagged Rps2 (S. cerevisiae) (UniProt P25443).
T3 sequence: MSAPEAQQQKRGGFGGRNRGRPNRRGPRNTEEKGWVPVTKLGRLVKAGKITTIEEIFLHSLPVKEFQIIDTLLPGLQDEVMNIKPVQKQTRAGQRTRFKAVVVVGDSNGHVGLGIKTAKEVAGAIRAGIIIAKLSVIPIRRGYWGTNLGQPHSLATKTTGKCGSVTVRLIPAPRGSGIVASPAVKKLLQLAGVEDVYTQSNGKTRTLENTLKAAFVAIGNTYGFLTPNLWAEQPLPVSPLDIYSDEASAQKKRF

For assay [4], the target named is T4, Rpl5-TurboID (S. cerevisiae) (UniProt P26321).
T4 sequence: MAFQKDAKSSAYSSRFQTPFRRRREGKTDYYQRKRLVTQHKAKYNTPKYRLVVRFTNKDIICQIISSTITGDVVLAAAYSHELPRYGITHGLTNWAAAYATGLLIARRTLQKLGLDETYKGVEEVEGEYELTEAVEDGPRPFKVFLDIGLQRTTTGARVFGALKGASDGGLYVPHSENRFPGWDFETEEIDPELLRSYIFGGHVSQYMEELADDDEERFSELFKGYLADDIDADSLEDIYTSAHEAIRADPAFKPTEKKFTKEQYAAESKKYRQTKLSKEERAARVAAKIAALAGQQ

Assay [5] addresses Rpl4a.N264-TurboID (S. cerevisiae) (UniProt P10664).
Assay [6] has as its target T5, TurboID-tagged Rps3 (S. cerevisiae) (UniProt P05750).
T5 sequence: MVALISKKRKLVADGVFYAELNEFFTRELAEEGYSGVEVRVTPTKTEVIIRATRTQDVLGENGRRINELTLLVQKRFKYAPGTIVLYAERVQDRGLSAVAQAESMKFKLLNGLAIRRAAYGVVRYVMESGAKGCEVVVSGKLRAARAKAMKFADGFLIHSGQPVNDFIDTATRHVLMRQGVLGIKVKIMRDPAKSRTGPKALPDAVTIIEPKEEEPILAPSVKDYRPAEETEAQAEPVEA

For assay [7], the target named is T6, TurboID-Syo1 (S. cerevisiae) (UniProt Q07395).
T6 sequence: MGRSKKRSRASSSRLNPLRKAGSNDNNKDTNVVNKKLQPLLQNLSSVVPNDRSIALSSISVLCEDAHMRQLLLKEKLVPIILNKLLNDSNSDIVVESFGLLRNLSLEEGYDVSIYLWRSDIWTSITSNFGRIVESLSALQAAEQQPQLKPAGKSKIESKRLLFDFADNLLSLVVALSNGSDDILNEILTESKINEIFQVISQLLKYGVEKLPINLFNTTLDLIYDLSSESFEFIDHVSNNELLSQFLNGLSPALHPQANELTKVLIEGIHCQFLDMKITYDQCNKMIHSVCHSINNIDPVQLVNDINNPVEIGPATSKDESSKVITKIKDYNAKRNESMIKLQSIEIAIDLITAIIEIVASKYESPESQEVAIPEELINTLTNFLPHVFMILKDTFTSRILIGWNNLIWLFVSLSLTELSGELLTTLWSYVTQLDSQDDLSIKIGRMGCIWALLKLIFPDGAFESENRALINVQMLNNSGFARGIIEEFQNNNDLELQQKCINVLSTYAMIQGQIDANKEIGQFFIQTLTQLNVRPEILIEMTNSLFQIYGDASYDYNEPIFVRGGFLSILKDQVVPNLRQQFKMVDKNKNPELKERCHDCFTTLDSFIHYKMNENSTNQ

For assay [8], the target named is TurboID-Rpl1b (S. cerevisiae) (UniProt P0CX44).
In assay [9] the target is T7, Syo1-TurboID (S. cerevisiae) (UniProt Q07395).
T7 sequence: T6 sequence

Assay [10] concerns the target Rpl1b-TurboID (S. cerevisiae) (UniProt P0CX44).

No constants are given. Whether binding was seen depends on the method and setting. In cells and extracts the contact can be indirect. Here binding means that the protein was enriched with, or labelled near, the bait; the list need not be complete. For some of these results: Sequences can lack the tags named with a protein.

B1: Rpl10 (endogenous) (protein, UniProt P41805 1-221)
chain: MARRPARCYRYQKNKPYPKSRYNRAVPDSKIRIYDLGKKKATVDEFPLCVHLVSNELEQLSSEALEAARICANKYMTTVSGRDAFHLRVRVHPFHVLRINKMLSCAGADRLQQGMRGAWGKPHGLAARVDIGQIIFSVRTKDSNKDVVVEGLRRARYKFPGQQKIILSKKWGFTNLDRPEYLKKREAGEVKDDGAFVKFLSKKGSLENNIREFPEYFAAQA
Consider B1, for which the binding entry in assay [1] and in [2] was “binds” in each case.

B2: Tsr4 (endogenous) (protein, UniProt P25040 1-408)
chain: MSKIEELPPSDTDDHSYSSKPGDVFLAFVDAPVKETDDILVEDSFIGGEPKWLHPDSEPPAELLKCGACKSADNMKLLLQAFSPLDDEQMSAIQQRLGINNMSYINPQDDRVLYVFLCTECQRKGNSVRCIRGVKKNKNVDSLSEKMASTSLEKDFQINPFDLSNNSDSKCNAFSSNPFGGANANPFGADSINSNISQSKDEGKKKESATVSAKTARKLHDLQKDKEYDGNKCFKSCLLYVEEETFKNKKPAHLQLPKNLKIDKEALDLTGDEDLEKDPIKLDPRTEKLSKFLDDDTFQKFQEVVGYNPLQVLRYDLGGKPLLYAETKVDILSTVPRPGYNPSSQRIFEMQLMPKMIFDLEEVVSVDNGMEWGTILVFTDVENYMPEFDEHGVGYVEECVKVQWESRT
For the molecule B2, the binding result in assay [3] is “binds”.

B3: Syo1 (endogenous) (protein, UniProt Q07395 1-620)
chain: T6 sequence
Take B3: in [4], the binding entry is on record as “binds”.

B4: Acl4 (endogenous) (protein, UniProt Q03771 1-387)
chain: MSELEATIRQAKEALAENNAKKALKILKPFKSSLKKENANNVILNEVFADAYLDNGQVEKAYPILARACELDPEGQVGGPDKFFTMGQIMGGQDGVSIITRGIMNISNTGGEMLTNVQVEKIVGGLLSVIEIWMTDLCMEPNAEEQCEELIQKAMELTEGKSPETWSTLGSIKISQQKFGEAYEAFSQAWNFFELKKQEIGSGINENGDTTQKAGLQSEYVDLLQPLLSLTKMCLEVGAYEVALKVIAAVRDIDEDNIEGYYLEGFTYYLMSKLEIFKLNNPEVSLRPENIYEFNQLIQEVPLDLSHEPISQLIYDSRLALSFALQAGVNADSKDEIVQELLGGANALLQEIGGPLDPSELTQIKKGDLVNENEDLEELDIEEEYSD
For the molecule B4, the binding result in [5] is on record as “binds”.

B5: Yar1 (endogenous) (protein, UniProt P46683 1-200)
chain: MGLHSEPLDQEDQDTIILDARAGDLDSLKDIFTTLVSPELLSTCKESESDSTALHMAAANGHIETVRYILETVSRANSAEDLKAFVNEVNKTGNTALHWASLNGKLDVVKLLCDEYEADPFIRNKFGHDAIFEAENSGKEEVETYFLKKYDVEPEDDEEDTQTEGKNSVQITKGTEIEQVTKEATEALREETEKLNINKD
Consider B5, for which the binding entry in assay [6] is on record as “binds”.

B6: Rpl5 (endogenous) (protein, UniProt P26321 1-297)
chain: T4 sequence
For the molecule B6, the binding entry in assay [7], in [8], in assay [9] and in [10] was “binds” in each case.

Values taken from paper PMC13034042.
